The source of these data is patent US20240000811A1, “INOSITOL HEXAKISPHOSPHATE ANALOGUES FOR TREATMENT OF CALCIFICATION ASSOCIATED KIDNEY DISEASES” (INOSITEC AG, priority 2020, published 2024).

For the series, the system named is C57BL/6 male mice on high phosphate diet. Kind of series: Mouse model of high phosphate-induced kidney damage. In kind it is in vivo. The settings on record: 100 mg/kg s.c. three times a week, 12 to 20 weeks of age. On the procedure:
C57BL/6 male mice (12 weeks of age) were placed on either regular diet containing 0.35% inorganic phosphate or high phosphate diet containing 2.0% inorganic phosphate. These mice were subcutaneously injected with either (OEG2)2-IP4 (100 mg/kg) or vehicle (distilled water) three times a week and then sacrificed at 20 weeks of age to harvest their blood and kidneys. Some mice were transferred individually to metabolic cages to collect urine for 3 days before sacrifice. Serum FGF23 levels were measured using intact FGF23 ELISA (Kinos) according to the manufacturers' protocols. Serum and urine levels of phosphate were measured using Fuji Dri-Chem slides and the analyzer (Dri-Chem NX500V, Fuji, Tokyo, Japan). […] Quantitative RT-PCR reactions were performed using 20 ng of cDNA incubated with 410 nM of each primer and 6 μL of SYBR Green PCR Master mix (Toyoba, Osaka, Japan THUNDERBIRD SYBR qPCR Mix QPS-201) in a total volume of 12 μl. […] Relative mRNA levels were calculated by the comparative threshold cycle method using cyclophilin as an internal control. […] The collagen volume fraction (the ratio of the Sirius Red-positive area to the total area) was quantified using an image analysis software (IMAGE PRO 9.32, Medica Cybernetics, Rockville, MD, USA) as previously described (Hirano, Y. Kurosu et al., FEBS Open Bio. 10, 894-903. DOI:10.1002/2211-5463.1284, 2020). […]

For the compound `COCCOCCO[C@@H]1C(OP(=O)(O)O)[C@H](OCCOCCOC)[C@@H](OP(=O)(O)O)C(OP(=O)(O)O)[C@H]1OP(=O)(O)O` (some centres unmarked) [(OEG2)2-IP4], the “serum phosphate, CaP or urine calcium at the end of the treatment period, treatment vs vehicle group” value is recorded as “no significant differences” and the “urinary phosphate excretion, treatment vs vehicle group” value is “no significant difference”.
